# PubChem BioAssay AID2685 (National Center for Advancing Translational Sciences (NCATS), 2010)
# The list shows a part of the results. These are further read-outs of the screen, such as a control signal, another cell line or another target. No call is given for them. The list favours compounds with an active or inconclusive main result. The note in brackets gives the kind of curve behind each potency; many fits are weak.
# Assay: qHTS Assay for Lipid Storage Modulators in Drosophila S3 Cells;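 on cell number change: cells counted by Cell Tracker Red CMTPX staining in the red channel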
# Conditions: BODIPY lipid droplet fluorescence, 18-24 h; for cell number change: measured here: cell count max response, cells fed with added oleic acid
# Procedure, shortened: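 Laser-scanning cytometry quantifies lipid droplet accumulation (500–530 nm total intensity; droplet/cell object ratio) in oleic acid-fed (400 uM added) Drosophila S3 cells treated with a concentration series. 20 uM Triacsin C defined 100% inhibition.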
# [1] = measured here: cell number channel AC50, cells fed with added oleic acid
# [2] = measured here: lipid fluorescence (Fed channel) AC50, cells fed with added oleic acid
SMILES,cell number change,AC50 [1],AC50 [2]
O=C(Oc1ccc(O)cc1)C12CC3CC(CC(C3)C1)C2,-61.8%,"20.6 µM [falling, partial curve]","20.6 µM [falling, partial curve]"
O=C(Nc1ccccc1Cl)c1ccccc1Cl,-14.3%,"3.26 µM [rising, partial curve]",
CCOC(=O)C1(CCCc2ccccc2)CCN(C(=O)c2cc(C)nn2CC)CC1,-11.6%,,"0.092 µM [rising, full curve, poor fit]"
Cc1ccsc1C1C(C(=O)O)c2ccccc2C(=O)N1C (stereo unspecified),13.1%,,"3.66 µM [falling, single point]"
CCCc1nnc(SCc2ccc(OC)cc2)n1N,8.79%,,"6.51 µM [falling, single point]"
O=C(O)CCC(=O)N1N=C(c2ccco2)CC1c1ccco1 (stereo unspecified),-0.794%,"0.00651 µM [rising, full curve, poor fit]",
Cc1ccc(NC(=O)c2nn(C34CC5CC(CC(C5)C3)C4)cc2[N+](=O)[O-])cc1,-24.7%,,"13 µM [falling, partial curve]"
CN(CC(=O)N1CCN(c2ccc(F)cc2)CC1)S(=O)(=O)c1ccc(F)cc1,,"6.51 µM [falling, single point]","0.13 µM [rising, full curve, poor fit]"
NNC(=O)C1CC1c1ccc(Cl)cc1 (stereo unspecified),17.7%,,"18.4 µM [rising, single point]"
Cc1cccc(C)c1CC(=O)N1CCOCC1,10.8%,,"0.82 µM [rising, full curve, poor fit]"
O=C(NCCc1ccccn1)C1CCCN1S(=O)(=O)c1ccc(Cl)cc1 (stereo unspecified),10.1%,,
COc1ccc(NC(=O)CSc2ccc(-c3ccco3)nn2)c(OC)c1,13.3%,,
Cc1cc([N+](=O)[O-])cc(C)c1OCC(=O)N/N=C/c1ccc(OC(=O)c2ccccc2Br)cc1,29.1%,,"16.4 µM [rising, single point]"
Cc1ccc(S(=O)(=O)Nc2c(NC3CCCCC3)c3ccccc3oc2=O)c(C)c1,1.52%,,"16.4 µM [rising, partial curve]"
CC(C)Nc1nc(NC(C)C)nc(N(C)C(N)=O)n1,,,"3.26 µM [rising, partial curve]"
COc1ccccc1N1CCN(CC(=O)Nc2ccccc2C(=O)NC(C)c2ccccc2)CC1 (stereo unspecified),-13.3%,,"0.00461 µM [falling, full curve, poor fit]"
O=C1C(Cl)=C(Nc2ccc3cn[nH]c3c2)C(=O)c2ccccc21,,,"25.9 µM [falling, partial curve, poor fit]"
COc1ccc(C(=O)OCn2nnc3ccccc3c2=O)cc1[N+](=O)[O-],50.9%,"29.1 µM [rising, single point]",
O=C(/C=C\Nc1ccc2c(c1)OCO2)c1cccs1,2.03%,,"0.461 µM [rising, full curve, poor fit]"
Nc1ccc(Oc2ccc(Cl)cc2)cc1,13.3%,"1.84 µM [rising, partial curve]","3.26 µM [rising, partial curve]"

SMILES,cell number change,AC50 [1],AC50 [2]
O=C(O)/C(=C\c1cccs1)c1ccc(F)cc1,-20.8%,"0.461 µM [falling, single point]",
COC(=O)c1ccccc1NC(=O)c1sc(N)nc1C,-15.7%,,
CC(C)c1ccc(NC2CCCN(C(=O)CCCn3cncn3)C2)cc1 (stereo unspecified),-0.99%,,"29.1 µM [rising, single point]"
CCOC(=O)C(NC(=O)c1ccccc1)(OCc1ccc(F)cc1)C(F)(F)F (stereo unspecified),-50.9%,"8.2 µM [falling, partial curve]","0.731 µM [falling, full curve]"
O=C(Cc1ccccc1)Nc1cc(C(=O)c2ccccc2)ccc1N1CCOCC1,,"0.411 µM [rising, partial curve, poor fit]","2.06 µM [rising, partial curve]"
CS(=O)(=O)N(CC(=O)NCCSCc1ccccc1)c1ccccc1Br,-14.8%,,
O=S(=O)(c1ccc(Cl)cc1)c1snnc1-c1ccccc1,21.7%,,
CCCS(=O)(=O)N1CCC(C(=O)NCCN(CC)c2ccccc2)CC1,,,"0.58 µM [rising, single point]"
CCCC(=O)C1=C(SCC)CC(C)(C)C(C(=O)OC)C1=O (stereo unspecified),-21.8%,"0.651 µM [falling, full curve, poor fit]","14.6 µM [falling, single point]"
CNS(=O)(=O)c1cc(NC(=O)c2cncn2-c2ccccc2)ccc1C,-11.8%,,
CCOc1ccc(CCNC(=O)COC(=O)c2cc(OC)c(OC)cc2[N+](=O)[O-])cc1OCC,66.7%,"9.2 µM [rising, partial curve]",
COc1ccc(-n2nc(C(=O)NCC(=O)NCc3cccc(F)c3)c3ccccc3c2=O)cc1Cl,-45.2%,,"9.2 µM [falling, single point]"
O=C(CSc1nnc(CCCOc2ccc(Cl)cc2Cl)o1)Nc1ccc(C(=O)O)cc1,45%,"16.4 µM [rising, single point]","29.1 µM [rising, partial curve]"
N#CC1=C(c2ccccc2)/C(=C/c2ccccc2)OC1=O,-18.7%,,
CCC(=O)N1c2ccccc2-c2nnc(SC)nc2OC1c1ccc(OC)c(OC)c1 (stereo unspecified),17.7%,,"0.0517 µM [rising, full curve, poor fit]"
Fc1cccc(NC(=S)Nc2ccc(Br)cc2)c1,-18.6%,,"20.6 µM [falling, partial curve, poor fit]"
COc1ccc(C(=O)NNC(=O)CSc2nnc(-c3ccc(O)cc3)n2C)cc1,-32.9%,,
Cc1cc(NC(=O)CSc2nc(N)c(NC(=O)c3ccc(F)c(F)c3)c(=O)[nH]2)no1,141%,"29.1 µM [rising, single point]","0.58 µM [falling, single point]"
Fc1ccc(NC(=S)Nc2cccc3ccccc23)cc1F,-13.3%,,"35.5 µM [falling, single point]"
CCNc1ccc(P(=O)(c2ccccc2)c2ccccc2)cc1,67.9%,"0.82 µM [rising, partial curve, poor fit]","1.46 µM [rising, full curve]"

# Some of the entries above, set out differently:
SMILES | cell number change | AC50 [1] | AC50 [2]
CS(=O)(=O)N(CC(=O)NCCSCc1ccccc1)c1ccccc1Br | -14.8% |  | 
O=C(CSc1nnc(CCCOc2ccc(Cl)cc2Cl)o1)Nc1ccc(C(=O)O)cc1 | 45% | 16.4 µM [rising, single point] | 29.1 µM [rising, partial curve]
